{
  "source": "PubChem BioAssay AID1688",
  "about": "(National Center for Advancing Translational Sciences (NCATS), 2009)",
  "note": "The whole screen tested about 220,000 compounds, of which about 2,400 (1.1%) were called active. Inconclusive results, whose numbers are uncertain, are shown with a selection of clear calls. Calls follow the shape of the dose curve; as a rule, active = well fitted inhibition curve with a large enough effect; inconclusive = small, poorly fitted or top-dose-only effect, or effect the other way; inactive = no such curve, though single readings can be large or run the other way. Potencies beside an inconclusive call are fits to weak or partial responses and may not hold up. % is scaled to controls: 0 for no effect and ±100 for the full control effect; potency is read from the fitted curve at half-maximal effect.",
  "data": [
    {"assay": "qHTS Multiplex Assay to Identify Dual Action Probes in a Cell Model of Huntington: Aggregate Formation (GFP); also: nearly all actives have a fitted effect of over 60% in size", "settings": "PC12 HttQ103-GFP aggregates, Acumen cytometry, 40 h; activity change, negative = inhibition: at 46.1 µM (top of the series) unless noted", "in_short": "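PC12 cells stably carrying ecdysone-inducible HTT exon 1 Q103–GFP were induced with tebufenozide (100 nM final) and treated with library compounds in titration. GFP aggregates in lysates were counted by laser scanning cytometry.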", "values": [
      {"smiles": "CC(C)(C)n1nc2c(c1NC(=O)COc1ccc(Cl)cc1)CSC2", "Potency": "inconclusive: 14.1 µM [inhibitor, single point]"},
      {"smiles": "COc1ccc(-c2csc3ncnc(NCCN4CCOCC4)c23)cc1", "Potency": "active: 12.6 µM"},
      {"smiles": "CC(C)CNC(=O)CCc1nc(-c2ccccc2)no1", "activity change, negative = inhibition": "inactive: 5.64% [at 9.22 µM]"},
      {"smiles": "CCCCOP(=O)(c1ccc(N(C)C)cc1)C(O)c1cccnc1", "note": "(centres undefined)", "activity change, negative = inhibition": "inactive: 6%"},
      {"smiles": "COc1ccc(NC(=O)c2oc3ccccc3c2NC(=O)C2CC2)cc1", "Potency": "inconclusive: 22.4 µM [inhibitor, single point]"},
      {"smiles": "O=C(CC1SC(=Nc2ccccc2)N(CCc2ccccn2)C1=O)Nc1ccc(F)cc1", "note": "(centres undefined)", "activity change, negative = inhibition": "inactive: -6.51%"},
      {"smiles": "Brc1ccc(-c2nn3c(-c4ccccn4)nnc3s2)o1", "Potency": "inconclusive: 1.26 µM [activator, single point]"},
      {"smiles": "O=C(CCc1nnc(C2CCCCC2)o1)N1CCN(Cc2ccccc2)CC1", "Potency": "inconclusive: 3.16 µM [activator, single point]"},
      {"smiles": "COc1ccc(CSc2ncnc3sccc23)cc1F", "activity change, negative = inhibition": "inactive: -7.04%"},
      {"smiles": "C/C(=N\\Nc1ccccc1)c1c(O)cc(C)oc1=O", "activity change, negative = inhibition": "inactive: 1.51%"},
      {"smiles": "Cc1cccc(OCC(=O)NCC(=O)N/N=C/c2cc(Br)ccc2OCc2ccccc2)c1", "activity change, negative = inhibition": "inactive: -14.8%"},
      {"smiles": "CC(C)n1cnc2c(N(C)c3cccc(Cl)c3)nc(N(CCO)CCO)nc21", "Potency": "inconclusive: 6.31 µM [inhibitor, partial curve, poor fit]"},
      {"smiles": "COc1cc(/C=N/N2CCOCC2)ccc1OCc1ccccc1", "activity change, negative = inhibition": "inactive: -0.658%"},
      {"smiles": "CCCCn1c(SCC(=O)c2cc(OC)ccc2OC)nc2cc(S(N)(=O)=O)ccc21", "activity change, negative = inhibition": "inactive: 22.8%"},
      {"smiles": "Cc1cccc(OCCn2c(=S)[nH]c3ccccc32)c1", "activity change, negative = inhibition": "inactive: -18.6%"},
      {"smiles": "CC(C)Nc1nc(NC(N)=S)nc(NC(C)C)n1", "Potency": "inconclusive: 35.5 µM [activator, single point]"},
      {"smiles": "CCCOc1ccc2c3c(c(=O)oc2c1OCCC)CCC3", "Potency": "inconclusive: 35.5 µM [inhibitor, single point]"},
      {"smiles": "O=C(Nc1ccc(Cl)c(Cl)c1)Nc1nnc(CC2=CCCCC2)s1", "Potency": "inconclusive: 3.55 µM [inhibitor, full curve]"},
      {"smiles": "O=C(O)CCC(=O)NCc1ccc(F)cc1", "Potency": "inconclusive: 0.501 µM [activator, full curve, poor fit]"},
      {"smiles": "CCOC(=O)CSc1nc(-c2ccccc2)ns1", "activity change, negative = inhibition": "inactive: 18.7%"},
      {"smiles": "Cc1cc(C)n(CCNC(=O)CCc2nnc(CCc3ccccc3)o2)n1", "Potency": "inconclusive: 1.26 µM [inhibitor, single point]"},
      {"smiles": "COC(=O)c1sccc1NC(=O)CC1C(=O)NCCN1C(=O)c1ccc(N(C)C)cc1", "note": "(centres undefined)", "activity change, negative = inhibition": "inactive: -16.6% [at 9.22 µM]"},
      {"smiles": "CCc1nnc(NC(=O)C2CCCO2)s1", "note": "(centres undefined)", "activity change, negative = inhibition": "inactive: 5.35% [at 9.22 µM]"},
      {"smiles": "CCN(Cc1ccccc1)S(=O)(=O)c1ccc2c(c1)NC(=O)CC(=O)N2", "activity change, negative = inhibition": "inactive: -4.38%"},
      {"smiles": "Cc1c(/C(O)=C2/C(=O)C(=O)N(CCN3CCOCC3)C2c2cccs2)cnn1-c1ccccc1", "note": "(centres undefined)", "Potency": "inconclusive: 15.8 µM [activator, single point]"},
      {"smiles": "COc1ccc(NCc2ccc([N+](=O)[O-])s2)cc1", "Potency": "inconclusive: 35.5 µM [inhibitor, single point]"},
      {"smiles": "CCOc1ccc(NC2c3ccccc3C(=O)N2Cc2ccc3c(c2)OCO3)cc1", "note": "(centres undefined)", "Potency": "inconclusive: 25.1 µM [inhibitor, single point]"},
      {"smiles": "COc1ccc(/C(N)=N/OC(=O)Cc2ccc(OC)c(OC)c2)cc1", "Potency": "inconclusive: 12.6 µM [activator, single point]"},
      {"smiles": "Fc1ccc(-c2nc(-c3cccs3)[nH]c2-c2ccc(F)cc2)cc1", "Potency": "inconclusive: 2.51 µM [inhibitor, full curve]"},
      {"smiles": "COc1ccc(NC2=C(Cl)C(=O)N(CCc3ccccc3)C2=O)c(OC)c1", "Potency": "inconclusive: 15.8 µM [inhibitor, single point]"},
      {"smiles": "CN(C)c1ccc(CNCCC(Cc2ccccc2)c2ccco2)cc1", "note": "(centres undefined)", "Potency": "inconclusive: 1.26 µM [activator, single point]"},
      {"smiles": "CC(=O)O[C@H]1C[C@@]2(C)[C@H](C[C@@H](O)[C@H]3[C@@]4(C)CC[C@@H](O)[C@@H](C)[C@H]4CC[C@@]32C)C1=C(CCC=C(C)C)C(=O)O", "activity change, negative = inhibition": "inactive: 16%"},
      {"smiles": "CC(C)Cn1cnc2sc3c(c2c1=N)CCCC3", "Potency": "inconclusive: 35.5 µM [inhibitor, single point]"},
      {"smiles": "NCC12CC3CC(C1)CC(c1ccc(Cl)cc1)(C3)C2", "Potency": "inconclusive: 35.5 µM [inhibitor, partial curve, poor fit]"},
      {"smiles": "CCc1nnc2sc(-c3cc(-c4ccccc4)nc4ccccc34)nn12", "Potency": "inconclusive: 5.62 µM [inhibitor, single point]"},
      {"smiles": "O=C(c1ccc(S(=O)(=O)c2ccc(F)cc2)c([N+](=O)[O-])c1)N1CCCCCC1", "Potency": "inconclusive: 28.2 µM [inhibitor, single point]"},
      {"smiles": "NC(=O)c1c(-c2ccc(Cl)cc2Cl)csc1NC(=O)Cc1ccccc1", "Potency": "active: 11.2 µM"},
      {"smiles": "CCCCn1nnnc1NCc1ccc(OC)c(OC)c1", "Potency": "inconclusive: 35.5 µM [inhibitor, single point]"},
      {"smiles": "O=C(c1ccc(Cl)cc1)c1nnc(-c2ccncc2)o1", "activity change, negative = inhibition": "inactive: 0.353%"},
      {"smiles": "O=C(CNC(=S)NC(=O)C1CCCCC1)c1ccccc1", "Potency": "inconclusive: 17.8 µM [activator, single point]"},
      {"smiles": "O=c1cc(CSc2n[nH]c(=O)n2C2CC2)c2ccc(O)cc2o1", "activity change, negative = inhibition": "inactive: -9.88% [at 9.22 µM]"},
      {"smiles": "CCS(=O)(=O)Nc1cc(OC)c(OC)cc1Cc1nccc2cc(OC)c(OC)cc12", "Potency": "inconclusive: 3.98 µM [activator, partial curve]"},
      {"smiles": "COC(=O)c1cc(C(=O)NC(C)(C)CC(C)(C)C)cc([N+](=O)[O-])c1", "Potency": "inconclusive: 7.08 µM [activator, partial curve, poor fit]"},
      {"smiles": "N#Cc1cccc(-n2nnnc2-c2ccccn2)c1", "Potency": "active: 11.2 µM"},
      {"smiles": "COc1ccc(Cn2nnnc2C(c2cc(OC)ccc2OC)N2CCC(C(N)=O)CC2)cc1", "note": "(centres undefined)", "Potency": "inconclusive: 2.82 µM [activator, partial curve, poor fit]"},
      {"smiles": "O=C(COc1ccccc1)Nc1cccc(-c2nc3cc4ccccc4cc3[nH]2)c1", "Potency": "inconclusive: 10 µM [inhibitor, single point]"},
      {"smiles": "C/C=C(/C)C(=O)O[C@@H]1c2cc3c(c(OC)c2-c2c(cc(OC)c(OC)c2OC)[C@@H](OC(C)=O)[C@@H](C)[C@H]1C)OCO3", "Potency": "inconclusive: 0.0891 µM [activator, full curve, poor fit]"},
      {"smiles": "O=S(=O)(c1cnccc1N1CCN(/N=C/c2ccc(Br)cc2)CC1)N1CCCCC1", "Potency": "inconclusive: 3.16 µM [inhibitor, single point]"},
      {"smiles": "CN1CCN(CCC(=O)N/N=C/c2cc([N+](=O)[O-])ccc2O)CC1", "Potency": "inconclusive: 17.8 µM [inhibitor, single point]"},
      {"smiles": "Oc1ccc(Br)cc1-c1nc2cnccn2c1NC1CCCCC1", "Potency": "inconclusive: 14.1 µM [inhibitor, single point]"},
      {"smiles": "CCn1c(=O)c([N+](=O)[O-])c(Cl)c2ccccc21", "Potency": "inconclusive: 1.12 µM [inhibitor, single point]"},
      {"smiles": "COc1cc2c(C(=O)N3CCN(c4ccccc4C)CC3)c(C)oc2cc1Br", "Potency": "inconclusive: 35.5 µM [inhibitor, single point]"},
      {"smiles": "CCn1c(=O)cc(OCC(=O)N2CCCCCC2)c2ccccc21", "Potency": "inconclusive: 12.6 µM [activator, partial curve]"},
      {"smiles": "Nc1c(S(=O)(=O)c2cccc(Cl)c2)c2nc3ccccc3nc2n1/N=C/c1ccc(O)c(O)c1", "Potency": "inconclusive: 35.5 µM [inhibitor, single point]"},
      {"smiles": "COc1ccccc1C(c1nnnn1CCc1ccccc1)N1CCCCCC1", "note": "(centres undefined)", "Potency": "inconclusive: 14.1 µM [inhibitor, single point]"},
      {"smiles": "Cc1nn(C)c(C)c1CNC(=O)c1nn2c(c1Cl)NC(c1cccs1)CC2C(F)(F)F", "note": "(centres undefined)", "Potency": "inconclusive: 35.5 µM [inhibitor, single point]"},
      {"smiles": "COc1ccc(/C(C)=N/NC(=O)c2ccccc2N)cc1", "activity change, negative = inhibition": "inactive: -3.3%"},
      {"smiles": "CCCCCCOC(=O)C(C#N)c1nc2ccccc2nc1N1CCN(CC)CC1", "note": "(centres undefined)", "Potency": "inconclusive: 15.8 µM [inhibitor, single point]"},
      {"smiles": "Cc1onc(-c2c(Cl)cccc2Cl)c1C(=O)n1nnc2ccccc21", "activity change, negative = inhibition": "inactive: -4.41% [at 9.22 µM]"},
      {"smiles": "COC(=O)c1ccc(C2N=C(c3cccs3)CC(c3ccccc3O)N2)cc1", "note": "(centres undefined)", "Potency": "inconclusive: 15.8 µM [inhibitor, single point]"},
      {"smiles": "O=C(CSc1nc(N2CCCCC2)nc(N2CCCCC2)n1)N1CCN(c2ccccc2)CC1", "Potency": "inconclusive: 35.5 µM [inhibitor, single point]"},
      {"smiles": "COc1ccc(N/N=C(/N=Nc2nc(C)cc(=O)[nH]2)c2ccccc2)cc1", "Potency": "inconclusive: 1.26 µM [inhibitor, full curve]"},
      {"smiles": "CC(C)Cc1ccc(S(=O)(=O)N2CCN(C(=O)c3ccco3)CC2)cc1", "Potency": "active: 10 µM"},
      {"smiles": "COc1cccc(C(=O)Nc2cccc(C(=O)NC3=NN(c4c(Cl)cc(Cl)cc4Cl)C(=O)C3)c2)c1", "Potency": "inconclusive: 35.5 µM [inhibitor, single point]"},
      {"smiles": "CCOC(=O)N1CCC(NC(=O)c2csc3c2CCCC3)CC1", "Potency": "inconclusive: 11.2 µM [inhibitor, single point]"},
      {"smiles": "COc1cccc(C(=O)Nn2cnnc2)c1", "activity change, negative = inhibition": "inactive: -6.77% [at 9.22 µM]"},
      {"smiles": "c1ccc2c(Cn3nnc4ccccc43)cccc2c1", "activity change, negative = inhibition": "inactive: -19.7%"},
      {"smiles": "CCOC(=O)C1=NN(c2ccc([N+](=O)[O-])cc2)CC1C(=O)OC", "note": "(centres undefined)", "activity change, negative = inhibition": "inactive: 11.3%"},
      {"smiles": "Cc1ccc(Cl)cc1N1CCN(C(=O)CSc2ccsc2[N+](=O)[O-])CC1", "Potency": "inconclusive: 1.26 µM [inhibitor, single point]"}
    ]}
  ]
}
